# From US20230057904A1 (Chugai, published 2023)
# No constants are given. Whether binding was seen depends on the method and setting. Some binding calls cover weakened binding; strength is not graded here.
# T1: human CLDN6 (Claudin-6) (human, UniProt P56747 1-220)
# T1 construct: also called hCLDN6; human Claudin 6
# T1 chain: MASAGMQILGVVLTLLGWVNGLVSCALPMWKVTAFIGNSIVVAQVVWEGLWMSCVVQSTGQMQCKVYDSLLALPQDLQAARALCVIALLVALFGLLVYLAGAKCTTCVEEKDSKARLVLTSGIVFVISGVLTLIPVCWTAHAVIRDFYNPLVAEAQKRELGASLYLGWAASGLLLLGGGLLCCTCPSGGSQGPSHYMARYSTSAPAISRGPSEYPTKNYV
# Assays:
# human CLDN6 (Claudin-6) [1] = molecular target: T1, human CLDN6 (Claudin-6); experiment: flow cytometry on FreeStyle 293-F transfectants, 10 micro g/mL
# human CLDN6 (Claudin-6) [2] = molecular target: T1, human CLDN6 (Claudin-6); experiment: flow cytometry, FreeStyle 293-F transfectants expressing human CLDN6, 10 micro g/mL antibody, anti-human IgG Alexa Fluor 647; MFI
# human CLDN6 (Claudin-6) [3] = molecular target: T1, human CLDN6 (Claudin-6); experiment: flow cytometry on hCLDN6/BaF (Ba/F3 transfectant), 15 micro g/ml antibody, Alexa Fluor 488 anti-human IgG; histogram against KLH/TR01
# human CLDN6 (Claudin-6) [4] = molecular target: T1, human CLDN6 (Claudin-6); experiment: flow cytometry on hCLDN6/BaF, 15 micro g/ml
# human CLDN6 (Claudin-6) [5] = molecular target: T1, human CLDN6 (Claudin-6); experiment: flow cytometry (FCM) on hCLDN6/BaF cells, anti-human IgG PE secondary; MFI; antibody concentration not given
# human CLDN6 (Claudin-6) [6] = molecular target: T1, human CLDN6 (Claudin-6); experiment: flow cytometry on hCLDN6/BaF, MFI
Binder,binding (human CLDN6 (Claudin-6) [1]),binding (human CLDN6 (Claudin-6) [2]),binding (human CLDN6 (Claudin-6) [3]),binding (human CLDN6 (Claudin-6) [4]),binding (human CLDN6 (Claudin-6) [5]),binding (human CLDN6 (Claudin-6) [6])
"AE3-20/TR01 (bispecific antibody, V domains shown, also called anti-CLDN6/CD3 bispecific antibody AE3-20/TR01; AE3.20H/AE3.20L//TR01) VH 1: EVKLVESGGGLVKPGGSLKLSCAASGFTFNSYTMSWVRQTPAKRLEWVVTISSGGGRTYYPDSVKGRFTISRDNARNTLYLQMSSLRSEDTAMYYCIRGDYRYDGFAYWGQGTLVTVST VL 1: DIQMTQSPASLSASVGETVTITCRASENIDSYLAWYQQKQGKSPQLLVYASTLLVDGVPSRFSGSRSGTQFSLKINSLQSEDVARYYCQHYYSIPYTFGSGTKLEIK VH 2: QVQLVESGGGVVQPGGSLRLSCAASGFTFSNAWMHWVRQAPGKGLEWVAQIKDKSQNYATYVAESVKGRFTISRADSKNSIYLQMNSLKTEDTAVYYCRYVHYAAGYGVDIWGQGTTVTVSS VL 2: DIVMTQSPLSLPVTPGEPASISCRSSQPLVHSNRNTYLHWYQQKPGQAPRLLIYKVSNRFSGVPDRFSGSGSGTDFTLKISRVEAEDVGVYYCGQGTQVPYTFGQGTKLEIK",binds,binds,–,–,–,–
"AH05/TR01 (bispecific antibody, V domains shown, IgG format by Fab arm exchange, silent Fc; also called anti-CLDN6/CD3 bispecific antibody AH05/TR01) VH 1: EVQVEQSGPELVKPGASVKISCKTSGYTFTEYTMHWVKQSHGKSLEWIGGINPNNGNTRYNQKFKGKATLTVDKSSSTAYMELRTLTSEDSAVYYCARCGDFDLFFFFAYWGQGTLVTVSA VL 1: DIVMTQSQKFMSTSVGDRVSVTCKASQNVGSNVAWYQQKPGQSPEGLISSASSRFSGVPDRFTGSGSGTDFTLTITNVQSEDLAEYFCQQYNSYPFTFGSGTELEIK VH 2: QVQLVESGGGVVQPGGSLRLSCAASGFTFSNAWMHWVRQAPGKGLEWVAQIKDKSQNYATYVAESVKGRFTISRADSKNSIYLQMNSLKTEDTAVYYCRYVHYAAGYGVDIWGQGTTVTVSS VL 2: DIVMTQSPLSLPVTPGEPASISCRSSQPLVHSNRNTYLHWYQQKPGQAPRLLIYKVSNRFSGVPDRFSGSGSGTDFTLKISRVEAEDVGVYYCGQGTQVPYTFGQGTKLEIK",binds,binds,binds,binds,–,–
"CDA0013/TR01 (bispecific antibody, V domains shown, CDA0013 is rabbit-derived; IgG format by Fab arm exchange, silent Fc; also called anti-CLDN6/CD3 bispecific antibody CDA0013/TR01) VH 1: QSLEESGGRLVTPGTPLTLTCTVSGIDLNNYGVGWVRQPPGKGLEWIGYINALGSAYYASWAKGRFTISRTSTTVDLKITSPTTEDTATYFCARVRYLYIGGGGYWIDRLDLWGQGTLVTVSS VL 1: DVVMTQTPASVEAAVGDTVTIKCQASQSISSCLSWYQQKPGQPPKLLIYYASTLASGVPSRFSGSGSGTEFTLTISGLQCDDAATYYCLGVVSYVSADGGFGGGTEVVVK VH 2: QVQLVESGGGVVQPGGSLRLSCAASGFTFSNAWMHWVRQAPGKGLEWVAQIKDKSQNYATYVAESVKGRFTISRADSKNSIYLQMNSLKTEDTAVYYCRYVHYAAGYGVDIWGQGTTVTVSS VL 2: DIVMTQSPLSLPVTPGEPASISCRSSQPLVHSNRNTYLHWYQQKPGQAPRLLIYKVSNRFSGVPDRFSGSGSGTDFTLKISRVEAEDVGVYYCGQGTQVPYTFGQGTKLEIK",binds,binds,–,–,–,–
"antibody comprising designed VH 25H and AE3.20L (antibody, human IgG1, kappa, V domains shown) VH: QVQLVESGGGVVQPGRSLRLSCAASGFTFSSYTMSWVRQAPGQGLEWMGTISSGGGRTYYPDSVKGRFTISRDNSKNTLYLQMNSLRAEDTAVYYCARGDYRYDGFAYWGQGTLVTVSS VL: DIQMTQSPASLSASVGETVTITCRASENIDSYLAWYQQKQGKSPQLLVYASTLLVDGVPSRFSGSRSGTQFSLKINSLQSEDVARYYCQHYYSIPYTFGSGTKLEIKR",–,–,–,–,binds,binds
"CS2201 (bispecific antibody, V domains shown, Fab arm exchange, silent Fc; also called 25H/20L0532//TR01) VH 1: QVQLVESGGGVVQPGRSLRLSCAASGFTFSSYTMSWVRQAPGQGLEWMGTISSGGGRTYYPDSVKGRFTISRDNSKNTLYLQMNSLRAEDTAVYYCARGDYRYDGFAYWGQGTLVTVSS VL 1: DIQMTQSPSSLSASVGDRVTITCRASYNIDSYLAWYQQKPGKAPKLLIYYSTLLVDGVPSRFSGSRSGTDFTLTISSLQPEDFATYYCQHYYSIPYTFGQGTKLEIK VH 2: QVQLVESGGGVVQPGGSLRLSCAASGFTFSNAWMHWVRQAPGKGLEWVAQIKDKSQNYATYVAESVKGRFTISRADSKNSIYLQMNSLKTEDTAVYYCRYVHYAAGYGVDIWGQGTTVTVSS VL 2: DIVMTQSPLSLPVTPGEPASISCRSSQPLVHSNRNTYLHWYQQKPGQAPRLLIYKVSNRFSGVPDRFSGSGSGTDFTLKISRVEAEDVGVYYCGQGTQVPYTFGQGTKLEIK",–,–,binds,binds,–,–
"CS2961 (bispecific antibody, human IgG1, kappa, L234A L235A, N297A, also called 65HQ39E-SG1212/54L0532Q38K-SK1021//TR01 arm with SG1213/SK1017) heavy 1: QVQLVESGGGVVQPGGSLRLSCAASGFTFSSYTMSWVREAPGQGLEWMGTISSGGGRTYYPDSVKGRFTISRDNSKNTLYLQMNSLRDEDTAVYYCARGDYRYDGFAYWGEGTLVTVSSASTKGPSVFPLAPSSKSTSGGTAALGCLVEDYFPEPVTVSWNSGALTSGVHTFPAVLESSGLYSLSSVVTVPSSSLGTQTYICNVNHKPSNTKVDERVEPKSCDKTHTCPPCPAPEAAGGPKVFLFPPKPKDTLMISRTPEVTCVVVDVSHEDPEVKFNWYVDGVEVHNAKTKPREEQYASTYRVVSVLTVLHQDWLNGKEYKCKVSNKGLPSSIEKTISKAKGQPREPQVYTLPPSREEMTKNQVSLTCLVKGFYPSDIAVEWESNGQPENNYKTTPPVLDSDGSFFLYSKLTVDKSRWQQGNVFSCSVMHEALHNHYTQESLSLSP light 1: DIQMTQSPSSLSASVGDRVTITCRASYNIDSYLAWYQKKPGKAPELLIYYSTLLVDGVPDRFSGSRSGTDFTLTISSLQPEDFATYYCQHYYSIPYTFGQGTKVEIERTVAAPSVFIFPPSDKQLKSGTAKVVCLLNNFYPREAKVQWKVDNALQSGNSKESVTEQDSKDSTYSLSSTLTLSKADYEKHKVYACEVTHQGLSSPVTKSFNRGEC heavy 2: QVQLVESGGGVVQPGGSLRLSCAASGFTFSNAWMHWVRKAPGKGLEWVAQIKDKSQNYATYVAESVKGRFTISRADSKNSIYLQMNSLKTEDTAVYYCRYVHYAAGYGVDIWGQGTTVTVSSASTKGPSVFPLAPSSKSTSGGTAALGCLVKDYFPEPVTVSWNSGALTSGVHTFPAVLKSSGLYSLSSVVTVPSSSLGTQTYICNVNHKPSNTKVDKRVEPKSCDKTHTCPPCPAPEAAGGPKVFLFPPKPKDTLMISRTPEVTCVVVDVSHEDPEVKFNWYVDGVEVHNAKTKPREEQYASTYRVVSVLTVLHQDWLNGKEYKCKVSNKGLPSSIEKTISKAKGQPREPQVYTLPPSRKEMTKNQVSLTCLVKGFYPSDIAVEWESNGQPENNYKTTPPVLDSDGSFFLYSKLTVDKSRWQQGNVFSCSVMHEALHNHYTQKSLSLSP light 2: DIVMTQSPLSLPVTPGEPASISCRSSQPLVHSNRNTYLHWYQEKPGQAPRLLIYKVSNRFSGVPDRFSGSGSGTDFTLKISRVEAEDVGVYYCGQGTQVPYTFGQGTKLEIKRTVAAPSVFIFPPSDEQLKSGTAEVVCLLNNFYPREAKVQWKVDNALQSGNSEESVTEQDSKDSTYSLSSTLELSKADYEKHKVYACEVTHQGLSSPVTKSFNRGEC",–,–,binds,binds,–,–
